PubChem BioAssay AID1259308 – NCATS | 2017
In all, the deposit lists about 59,000 reagents; this is an unselected part. Of all reagents, about 1,510 (2.6%) are marked active. 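Calls use total luciferase alone and ignore viability, so some active siRNAs may act by altering cell number.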 Not all columns of the deposit are shown. No sequences are given here.

Test: 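Knock-downs that increase output of a recombinant reporter protein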 (primary screen)
Cells: human HEK293 embryonic kidney cells stably expressing firefly luciferase (HEK-CMV-Luc2-Hygro)
Knock-down reagent: single siRNA against human genes, 0.8 pmol siRNA per well
Time to read-out: 72 h
Measured: 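Luciferase light (ONE-Glo) measured on one replicate plate set and viability (CellTiter-Glo) on the other, scaled to a negative control siRNA, with robust z-scores and luciferase per cell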
Reading the numbers: total luciferase, z-score: higher = more reporter protein produced
Active means: 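Active when the median/MAD z-score for overall luciferase is greater than 3; a gene was taken forward for validation with new siRNAs if at least two of its three siRNAs passed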
Meaning of the calls: active = raised luciferase; inactive = no rise

total luciferase, z-score, by gene and reagent
GOLGA7B: SID160767353 -0.244 inactive; SID160767354 -0.732 inactive; SID160767355 0.436 inactive
SEMA3D: SID160761924 1.71 inactive; SID160761925 0.417 inactive; SID160761926 0.713 inactive
LY6G6F: SID160762580 1.9 inactive; SID160762581 2.79 inactive; SID160762583 -0.47 inactive
NFATC3: SID160777993 -0.93 inactive; SID160777994 1.96 inactive; SID160777995 -0.727 inactive
TMEM39B: SID160742980 5.21 active; SID160742981 0.359 inactive; SID160742982 -0.0104 inactive
SAP30BP: SID160739098 -0.197 inactive; SID160739099 0.0491 inactive; SID160739101 3.48 active
HECTD4: SID160760643 1.26 inactive; SID160760644 -0.781 inactive; SID160760645 2.8 inactive; SID160762915 -0.643 inactive; SID160762916 0.533 inactive; SID160762917 0.0135 inactive
LINC00290: SID160734285 -0.164 inactive; SID160771465 2.02 inactive; SID160771466 0.389 inactive
CAPN11: SID160730013 -0.132 inactive; SID160730014 -0.241 inactive; SID160730509 -1.31 inactive
BTNL9: SID160759354 0.038 inactive; SID160759355 -0.0391 inactive; SID160759356 -0.206 inactive
GPR137B: SID160718157 0.127 inactive; SID160718158 2.04 inactive; SID160718160 -0.295 inactive

Entries above called active:
total luciferase, z-score, by gene and reagent
TMEM39B: SID160742980 5.21 active
SAP30BP: SID160739101 3.48 active

Continued.
total luciferase, z-score, by gene and reagent
NARS1: SID160777784 -2.18 inactive; SID160777785 -1.72 inactive; SID160777786 -2.71 inactive
ZDHHC4: SID160743053 0.341 inactive; SID160743054 -0.396 inactive; SID160743055 -2.11 inactive
PKD2: SID160714382 0.352 inactive; SID160714383 -0.659 inactive; SID160714384 1.6 inactive
SLC25A38: SID160742653 -0.448 inactive; SID160742654 -0.198 inactive; SID160742655 1.25 inactive
GRIK5: SID160774427 -1.88 inactive; SID160774436 -0.783 inactive; SID160774447 2.94 inactive
HTN3: SID160733065 -0.54 inactive; SID160733066 0.0157 inactive; SID160775434 -0.906 inactive
LINC02910: SID160763429 -0.962 inactive; SID160763431 -0.203 inactive; SID160763432 1.04 inactive
